Source: article PMC8261482
Results are given in words; binding and its absence hold for the method and conditions named. In cells and extracts the contact can be indirect. Some entries that bind do so weakly or less than the wild type.

Amino acid sequences for entries named in this document (tags omitted).
UniProt P78347: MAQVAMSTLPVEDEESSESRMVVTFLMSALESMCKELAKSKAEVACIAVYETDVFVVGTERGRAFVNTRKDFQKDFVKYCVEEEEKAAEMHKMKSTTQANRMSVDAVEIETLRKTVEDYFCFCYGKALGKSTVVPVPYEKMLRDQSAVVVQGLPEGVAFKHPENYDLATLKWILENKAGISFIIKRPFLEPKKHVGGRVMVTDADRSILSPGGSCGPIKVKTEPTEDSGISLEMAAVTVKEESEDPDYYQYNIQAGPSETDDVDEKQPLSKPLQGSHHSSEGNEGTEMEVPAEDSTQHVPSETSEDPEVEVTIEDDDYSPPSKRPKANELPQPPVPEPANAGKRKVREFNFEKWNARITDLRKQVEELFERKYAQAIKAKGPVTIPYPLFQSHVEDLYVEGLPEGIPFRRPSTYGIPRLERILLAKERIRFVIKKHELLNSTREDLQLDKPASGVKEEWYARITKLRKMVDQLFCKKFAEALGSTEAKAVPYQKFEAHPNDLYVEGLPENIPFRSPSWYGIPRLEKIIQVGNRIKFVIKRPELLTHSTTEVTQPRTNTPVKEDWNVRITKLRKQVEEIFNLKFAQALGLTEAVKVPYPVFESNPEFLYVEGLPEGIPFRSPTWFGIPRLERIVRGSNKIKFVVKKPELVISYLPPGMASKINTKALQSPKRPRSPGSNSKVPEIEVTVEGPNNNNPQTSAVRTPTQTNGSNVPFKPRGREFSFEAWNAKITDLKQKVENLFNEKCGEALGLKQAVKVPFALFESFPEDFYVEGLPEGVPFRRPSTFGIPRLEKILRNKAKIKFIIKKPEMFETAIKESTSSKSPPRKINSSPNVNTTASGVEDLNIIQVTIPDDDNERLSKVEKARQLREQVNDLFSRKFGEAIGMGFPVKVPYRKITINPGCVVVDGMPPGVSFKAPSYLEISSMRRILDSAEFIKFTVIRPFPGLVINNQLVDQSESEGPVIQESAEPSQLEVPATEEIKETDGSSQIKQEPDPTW

Molecular target: TFII‐I (human (endogenous in SK-Hep-1)) (UniProt P78347)
Assay: co-IP; lysate of SK-Hep-1 cells with stable overexpression of circARHGAP35 protein; IP with TFII-I or control IgG antibody; immunoblot with the indicated antibodies

B1: ARHGAP35 protein (protein, UniProt Q9NRY4 1-1499)
chain: MMMARKQDVRIPTYNISVVGLSGTEKEKGQCGIGKSCLCNRFVRPSADEFHLDHTSVLSTSDFGGRVVNNDHFLYWGEVSRSLEDCVECKMHIVEQTEFIDDQTFQPHRSTALQPYIKRAAATKLASAEKLMYFCTDQLGLEQDFEQKQMPDGKLLVDGFLLGIDVSRGMNRNFDDQLKFVSNLYNQLAKTKKPIVVVLTKCDEGVERYIRDAHTFALSKKNLQVVETSARSNVNVDLAFSTLVQLIDKSRGKTKIIPYFEALKQQSQQIATAKDKYEWLVSRIVKNHNENWLSVSRKMQASPEYQDYVYLEGTQKAKKLFLQHIHRLKHEHIERRRKLYLAALPLAFEALIPNLDEIDHLSCIKAKKLLETKPEFLKWFVVLEETPWDATSHIDNMENERIPFDLMDTVPAEQLYEAHLEKLRNERKRVEMRRAFKENLETSPFITPGKPWEEARSFIMNEDFYQWLEESVYMDIYGKHQKQIIDKAKEEFQELLLEYSELFYELELDAKPSKEKMGVIQDVLGEEQRFKALQKLQAERDALILKHIHFVYHPTKETCPSCPACVDAKIEHLISSRFIRPSDRNQKNSLSDPNIDRINLVILGKDGLARELANEIRALCTNDDKYVIDGKMYELSLRPIEGNVRLPVNSFQTPTFQPHGCLCLYNSKESLSYVVESIEKSRESTLGRRDNHLVHLPLTLILVNKRGDTSGETLHSLIQQGQQIASKLQCVFLDPASAGIGYGRNINEKQISQVLKGLLDSKRNLNLVSSTASIKDLADVDLRIVMCLMCGDPFSADDILFPVLQSQTCKSSHCGSNNSVLLELPIGLHKKRIELSVLSYHSSFSIRKSRLVHGYIVFYSAKRKASLAMLRAFLCEVQDIIPIQLVALTDGAVDVLDNDLSREQLTEGEEIAQEIDGRFTSIPCSQPQHKLEIFHPFFKDVVEKKNIIEATHMYDNAAEACSTTEEVFNSPRAGSPLCNSNLQDSEEDIEPSYSLFREDTSLPSLSKDHSKLSMELEGNDGLSFIMSNFESKLNNKVPPPVKPKPPVHFEITKGDLSYLDQGHRDGQRKSVSSSPWLPQDGFDPSDYAEPMDAVVKPRNEEENIYSVPHDSTQGKIITIRNINKAQSNGSGNGSDSEMDTSSLERGRKVSIVSKPVLYRTRCTRLGRFASYRTSFSVGSDDELGPIRKKEEDQASQGYKGDNAVIPYETDEDPRRRNILRSLRRNTKKPKPKPRPSITKATWESNYFGVPLTTVVTPEKPIPIFIERCIEYIEATGLSTEGIYRVSGNKSEMESLQRQFDQDHNLDLAEKDFTVNTVAGAMKSFFSELPDPLVPYNMQIDLVEAHKINDREQKLHALKEVLKKFPKENHEVFKYVISHLNKVSHNNKVNLMTSENLSICFWPTLMRPDFSTMDALTATRTYQTIIELFIQQCPFFFYNRPITEPPGARPSSPSAVASTVPFLTSTPVTSQPSPPQSPPPTPQSPMQPLLPSQLQAEHTL
binding: binds weakly
